Data on one molecule can be found in paper PMC11005723, “Development of Complementary Photo‐arginine/lysine to Promote Discovery of Arg/Lys hPTMs Interactomes” (Advanced Science, 2024).

No constants are given. Whether binding was seen depends on the method and setting. Binding seen in cells or lysates may run through a third protein. Some binding calls cover weakened binding; strength is not graded here.

This experiment deals with T1, H3K4me3‐R2dz (probe 2).
T1 sequence (peptide, photo-arginine R(dz) at 2; trimethyl-lysine (Kme3) at 4; K(biotin) at 14): ARTKQTARKSTGGKA
Description: cross-linking + pull-down; 10 µM biotinylated diazirine peptide probe incubated with HEK293T nuclear lysate (0.5 mg/mL) at 4 °C for 1 h, 365 nm UV 30 min on ice, proteins precipitated and dissolved in 1% SDS PBS, streptavidin agarose, western blot; only the target purified.

B1: ING2 (protein, UniProt Q9H160 1-280)
chain: MLGQQQQQLYSSAALLTGERSRLLTCYVQDYLECVESLPHDMQRNVSVLRELDNKYQETLKEIDDVYEKYKKEDDLNQKKRLQQLLQRALINSQELGDEKIQIVTQMLELVENRARQMELHSQCFQDPAESERASDKAKMDSSQPERSSRRPRRQRTSESRDLCHMANGIEDCDDQPPKEKKSKSAKKKKRSKAKQEREASPVEFAIDPNEPTYCLCNQVSYGEMIGCDNEQCPIEWFHFSCVSLTYKPKGKWYCPKCRGDNEKTMDKSTEKTKKDRRSR
As for B1, the binding result is reported as “binds”.
